PfKRS1: 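Enzyme assay of the cytosolic lysyl-tRNA synthetase in 384-well plates, read by luminescence. Target: Lysine-tRNA ligase, Plasmodium falciparum 3D7 (UniProt Q8IDJ8). Compounds at 30 µM. Direction is inferred from only a few compounds that gave an IC50; most scored high, so higher reads as stronger inhibition. About 69,000 compounds were tested under these conditions; 0.071% (about 49) showed 50% or more at least once.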
ClpP1P2: 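ClpP1P2, Mycobacterium tuberculosis (UniProt P9WPC5 and UniProt P9WPC3). Protease assay of ClpP1P2, read by the AMC dye that it sets free. Concentration: 50 µM. Direction is inferred from only a few compounds that gave an IC50; most scored high, so higher reads as stronger inhibition. Most other retested compounds had strongly negative values. About 69,000 compounds were tested under these conditions; 0.015% (about 10) showed 50% or more at least once.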

Chains of the proteins cited; added tags and fusions are not shown. Residues count along the entry.
UniProt Q8IDJ8, 1-583: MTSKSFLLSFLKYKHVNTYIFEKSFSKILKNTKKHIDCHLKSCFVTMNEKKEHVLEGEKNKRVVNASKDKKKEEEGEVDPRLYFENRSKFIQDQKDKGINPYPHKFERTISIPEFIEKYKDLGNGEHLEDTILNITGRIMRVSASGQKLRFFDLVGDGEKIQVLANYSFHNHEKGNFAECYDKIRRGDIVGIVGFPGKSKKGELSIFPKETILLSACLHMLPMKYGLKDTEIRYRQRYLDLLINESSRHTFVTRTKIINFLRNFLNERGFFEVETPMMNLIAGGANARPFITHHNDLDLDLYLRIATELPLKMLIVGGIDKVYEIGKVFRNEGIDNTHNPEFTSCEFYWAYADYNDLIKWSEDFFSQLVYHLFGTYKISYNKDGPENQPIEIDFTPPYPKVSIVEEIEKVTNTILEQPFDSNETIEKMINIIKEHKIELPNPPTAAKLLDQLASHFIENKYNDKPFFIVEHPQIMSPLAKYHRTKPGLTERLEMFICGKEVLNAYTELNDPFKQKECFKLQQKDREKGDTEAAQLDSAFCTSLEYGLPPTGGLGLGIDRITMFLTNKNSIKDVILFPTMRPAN
UniProt P9WPC5, whole entry: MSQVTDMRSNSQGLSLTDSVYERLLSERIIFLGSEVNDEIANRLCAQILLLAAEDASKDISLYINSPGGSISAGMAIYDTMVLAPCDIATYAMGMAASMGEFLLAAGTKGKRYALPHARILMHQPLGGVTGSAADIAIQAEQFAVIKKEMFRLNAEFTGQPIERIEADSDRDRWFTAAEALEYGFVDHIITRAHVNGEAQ
UniProt P9WPC3, whole entry partner: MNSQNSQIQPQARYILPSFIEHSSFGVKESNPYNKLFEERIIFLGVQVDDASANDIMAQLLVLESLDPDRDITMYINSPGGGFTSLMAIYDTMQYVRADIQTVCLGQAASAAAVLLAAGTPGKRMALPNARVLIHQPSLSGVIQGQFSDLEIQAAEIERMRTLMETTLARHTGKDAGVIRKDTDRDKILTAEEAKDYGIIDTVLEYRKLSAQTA

Each number is a percent effect as filed.
The record does not define 0% and 100%; most values in the screen are far below 50% and negative numbers occur (in some assays of this library far below -100).
Compounds were drawn at random from those tested, without regard to their results.

structure	PfKRS1	ClpP1P2
Cc1ccc(C(=O)N2CCC(n3cc(CN)nn3)CC2)cc1F	-2.02	-1.359
CCc1c(C(=O)N2CC[C@H](N3CCOCC3)[C@H](CCCO)C2)csc1C	-1.588	-6.398
COCC1CN(Cc2ccc(OC)cc2)Cc2nnn(CC3CC3)c21 (centres unmarked)	4.069	-7.24
O=C(NCc1ccccc1CN1CCCC1=O)Nc1nncs1	6.495	0.2191
c1ccc(OCc2nnc3n2CCN(CC2CCOCC2)C3)nc1	-0.4512	-0.8986
COc1ccc(N2Cc3nc(N)ncc3C2=O)cc1Cl	3.635	-5.542
CC(C)(Cn1cnc(-c2ccccc2)c1-c1ccco1)N1CCOCC1	3.572	0.3017
CC(C)CNC(=O)CN(CC(=O)NCC(C)C)S(C)(=O)=O	-0.6916	15.38
COc1cccc(CN2CCOC(Cn3nc(C)cc3C)C2)c1 (centres unmarked)	5.19	-32.17
N#CC1(NC(=O)c2nccc3ccccc23)CCC1	4.967	2.665
Cc1cc(C)n(C2CN(C(=O)Cn3c(C)cc(=O)c4ccccc43)C2)n1	3.876	-3.229
CCc1nc(C2CCCN2Cc2nnc(CC)o2)no1 (centres unmarked)	3.937	4.188
COCCOC1CCN(C(C(=O)O)c2ccc(F)c(Cl)c2)CC1 (centres unmarked)	0.7219	-7.42
CNc1cc(C(=O)N(C)Cc2cc(-c3cccs3)n[nH]2)ccn1	5.92	-1.73
COc1ccc(CN2C[C@@H]3CN(Cc4ccncc4)C[C@@H]3C2=O)cc1	3.006	0.4228
Cc1cn2c(n1)CCC(NC(=O)c1cnc(C)nc1C(C)C)C2 (centres unmarked)	4.563	6.06
CC(NC1(CNC(=O)Cn2cccn2)CCOCC1)c1ccccc1 (centres unmarked)	0.2112	0.1982
O=C(NCCNc1ncccn1)C1CC(=O)N(Cc2ccccn2)C1 (centres unmarked)	-3.197	-22.86
Cc1cc(C)n(CC2CN(CC(=O)NC3(C#N)CCCC3)CCO2)n1 (centres unmarked)	0.5187	3.032
CC(C)Nc1ncc(-c2ccncc2)c([C@@H]2CCCO2)n1	1.876	11.6
COc1cc(CNC(=O)C(C)SC)cc(Br)c1OC (centres unmarked)	4.326	0.3725
Cc1ccc(-n2c(O)cc(C)c(C#N)c2=O)c(C)c1	11.5	5.393
CCC(=O)NCC(=O)NC(Cc1ccccc1)c1sccc1C (centres unmarked)	6.469	-12.25
c1csc(CN2CCC3(CCOCC3COCC3CC3)CC2)n1 (centres unmarked)	3.849	3.073
CCC(CO)N(Cc1ccsc1)Cc1ccccc1C(=O)O (centres unmarked)	5.272	-0.1194
COc1ccc(CNC2CCC(O)CC2)cc1OCCCC#N (centres unmarked)	2.801	11.33
Fc1ccc2[nH]c(C3CCCN3Cc3c[nH]cn3)nc2c1 (centres unmarked)	12.45	-35.77
COc1cc(N2CC[C@@H]3OCCN(C)[C@H]3CC2)ncn1	3.76	-0.9759
Clc1snnc1CN1CCN(c2nccs2)CC1	5.407	6.912
c1cnc(N2CCC(NCc3cnc(C4CCC4)s3)CC2)nc1	0.9984	-4.939
Cc1c(CN2CCCC(C(=O)CCc3ccccc3)C2)cc(C#N)n1C (centres unmarked)	0.4168	1.066
COCCN(CC(N)=O)CC1CCCN(C2Cc3ccccc3C2)C1 (centres unmarked)	-2.567	1.926
O=C(C1CCCN(CCc2ccc3c(c2)CCO3)C1)N1CCCC1 (centres unmarked)	-4.005	-14.86
COCC1N(C(=O)c2ccc3c(c2)OCCCO3)[C@H]2CC[C@]1(O)CC2 (some centres unmarked)	6.007	2.793
COc1ccc(NC(=O)C2CCCO2)cc1OCc1cccnc1 (centres unmarked)	-0.5832	7.407
Cc1noc(C)c1CN(C)C(=O)c1ccc2c(c1O)OC(C)(C)C2	7.744	-3.478
CCc1nc(CN(C)CC2CCN(CC(C)O)CC2)no1 (centres unmarked)	-0.4857	-9.619
CCN(c1ccsc1C(=O)N1CCSCC1)S(=O)(=O)c1ccc(Cl)cc1	2.211	3.468
CN(Cc1ncnn1C)C1CCN(c2sccc2C#N)C1=O (centres unmarked)	-1.232	-5.437
Cc1occc1CNc1ncccc1S(N)(=O)=O	-0.3251	-8.795
CN(C)C(=O)COc1ccccc1CN1CCOC2(CCCC2)C1	1.482	2.374
c1coc(CN2C[C@@H]3OCCN(CC4CCCO4)[C@@H]3C2)c1 (some centres unmarked)	6.133	10.7
Cc1c(Br)cnn1CC(=O)Nc1ccon1	3.181	-25.69
COCc1nc(N2CCC(CCO)CC2)c2cnn(C)c2n1	4.663	-7.55
COCCCNc1nccc(-c2c[nH][nH]c2=O)n1	-5.3	18.07
O=C(NCC1CC1)[C@H]1CC[C@@H]2[C@@H](CCN2Cc2ccoc2)O1	2.434	-5.924
Cc1ccc(F)c(OC2CCCN(c3cnn(C)c3)C2=O)c1 (centres unmarked)	4.29	-0.8999
c1ncn(CC2CCCN(Cc3nc(C4CC4)no3)C2)n1 (centres unmarked)	8.995	1.353
CN(Cc1cccnc1)c1nc(-c2ccccn2)nc2c1CCNCC2	3.195	-4.155
CN(C)[C@H]1C[C@@H](Cc2cc(CO)on2)C1(C)C	4.854	0.6252
CN(C)c1ccnc(-c2ccnc3c2ccn3C)n1	3.938	-223.7
N#Cc1ccc(N2CCCC2Cn2cncn2)nc1 (centres unmarked)	1.393	-4.169
Cc1ccc2c(n1)N(CC1CC1)CCN(C(=O)NC1CC1)C2	3.574	-13.35
Cc1nnc2n1CCN(C(C(=O)NC1CC1)c1ccc(F)cc1)C2 (centres unmarked)	-0.3815	-9.779
CCCN1CCN(Cc2cn(CCC(N)=O)c3ccccc23)CC1	3.845	-15.69
CN(Cc1ccco1)[C@@H]1CN(Cc2ccc(F)cc2)[C@@H]2CCCO[C@H]12	3.477	3.329
COCCN1C(=O)CC[C@@H]2[C@H]1CCN2C(=O)C1CCOCC1	2.731	7.783
COc1ccc(C)cc1Nc1nc2c(C)nn(C)c2c(=O)n1C	5.5	-6.328
COc1ccc2c(c1)CN(Cc1nc3ccsc3c(=O)[nH]1)CC2	8.402	-0.4311
COCCC(=O)N1CCC2(CCN(Cc3ccc(OC)c(F)c3)C2)C1 (centres unmarked)	-0.3564	-13.86
Fc1ccc(OCc2nnc([C@H]3CCN(Cc4ccncc4)C3)o2)cc1	6.984	-4.247
COc1ccc(NS(=O)(=O)c2cnc(NC(C)=O)s2)cc1	0.9409	4.369
OCCN1CCOC2(CCCN(c3ncccn3)C2)C1 (centres unmarked)	0.3314	-1.774
CC(C)(C)c1ccc(C2(C(=O)NCCCS(C)(=O)=O)CC2)cc1	4.158	-16.37
COCCN1C[C@@H]2CN(Cc3ccoc3)CCC[C@]2(C(=O)O)C1	8.157	-6.839
O=C(NCc1cccc(N2CCCCC2=O)c1)[C@@H](O)c1ccccc1	6.88	-2.44
Cc1csc(C(C)(C)NCCNS(C)(=O)=O)n1	0.9835	-3.47
c1cncc(CN2CCc3c(CNc4nccs4)n[nH]c3C2)c1	0.7628	-6.3
CCC1CN(Cc2nc(C(C)C)no2)CCC(=O)N1Cc1ccccc1 (centres unmarked)	1.271	0.4468

Repeated from the top, 5 entries:

structure	PfKRS1	ClpP1P2
Cc1ccc(C(=O)N2CCC(n3cc(CN)nn3)CC2)cc1F	-2.02	-1.359
CCc1c(C(=O)N2CC[C@H](N3CCOCC3)[C@H](CCCO)C2)csc1C	-1.588	-6.398
COCC1CN(Cc2ccc(OC)cc2)Cc2nnn(CC3CC3)c21 (centres unmarked)	4.069	-7.24
O=C(NCc1ccccc1CN1CCCC1=O)Nc1nncs1	6.495	0.2191
c1ccc(OCc2nnc3n2CCN(CC2CCOCC2)C3)nc1	-0.4512	-0.8986

From ChEMBL document CHEMBL3988442, “University of Dundee, Small-Polar-MMV Screening Library” (2021).